Experimental data: PubChem BioAssay AID720505 (Drosophila RNAi Screening Center, 2013)
Aim: 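Knock-downs that reduce calcium influx once internal stores are emptied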 (primary screen). Cells: Drosophila S2R+ cells. Knock-down reagent: long dsRNA against Drosophila genes. Conditions: thapsigargin (2 µM) in calcium-free buffer to empty internal stores, then 2 mM calcium added back. Measured: 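Fluo-4 signal in 384-well plates read on a FLIPR after thapsigargin (2 µM, calcium-free) store depletion and 2 mM calcium add-back; unnormalised mean endpoint per well; screen run twice, selected wells retested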. Reading the numbers: calcium signal and retest calcium signal: higher = more calcium entry after store depletion. Active means: 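Knock-downs counted as hits when calcium entry dropped relative to STIM1 positive and Rho1 negative controls present on each plate; roughly 1500 genes called, with reductions of differing size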. Meaning of the calls: active = called as lowering calcium entry; inactive = not called.
The screen tested about 20,000 reagents; shown is a random part of those with a known target gene and a result. Over the whole deposit, about 2,100 (10%) were called active. 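Raw plate signals without normalisation; calls rest on control-based scores that were not deposited; replicate 2 separates called from uncalled poorly.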 Unmarked entries are inactive. The numbers tell different reagents against one gene apart. Not given: the amount of reagent, the time to read-out.

| gene | reagent | calcium signal, replicate 1 | calcium signal, replicate 2 | retest calcium signal, replicate 1 | retest calcium signal, replicate 2 |
| --- | --- | --- | --- | --- | --- |
| Hmt-1 | 1 | 95 | 163 | – | – |
| Trxr1 | 1 | 118 | 77.1 | – | – |
| Trxr1 | 2 | 80.3 | 198 | – | – |
| Sb | 1 | 107 | 153 | – | – |
| Tig | 1 | 96.5 | 100 | – | – |
| btsz | 1 | 171 | 179 | – | – |
| btsz | 2 | 151 | 175 | – | – |
| btsz | 3 | 121 | 154 | – | – |
| btsz | 4 | 124 | 205 | – | – |
| btsz | 5 | 74.3 | 128 | – | – |
| CG4956 | 1 | 212 | 119 | – | – |
| rpk | 1 | 119 | 72.8 | – | – |
| rpk | 2 | 96.1 | 116 | – | – |
| CG10026 | 1 | 162 | 77.3 | – | – |
| CG7896 | 1 | 116 | 110 | – | – |
| CG14034 | 1 | 64.4 (active) | 163 | – | – |
| CG10809 | 1 | 96.3 | 109 | – | – |
| twin | 1 | 165 | 164 | – | – |
| twin | 2 | 181 | 91.4 | – | – |
| twin | 3 | 138 | 94 | – | – |
| CG14085 | 1 | 105 | 153 | – | – |
| mEFTu1 | 1 | 157 | 140 | – | – |
| CG11106 | 1 | 108 | 100 | – | – |
| Np | 1 | 120 | 145 | – | – |
| Np | 2 | 115 | 93.2 | – | – |
| Np | 3 | 101 | 160 | – | – |
| CG15760 | 1 | 61.7 (active) | 109 | – | – |
| Dlip2 | 1 | 128 | 132 | – | – |
| Naxe | 1 | 74.8 (active) | 98.5 | – | – |
| CG5445 | 1 | 78.8 | 133 | – | – |
| CG5445 | 2 | 113 | 118 | – | – |
| Syx8 | 1 | 4074 | 65.6 | 219 | 86 |
| Syx8 | 2 | 108 | 176 | – | – |
| CG11638 | 1 | 140 | 144 | – | – |
| CG11638 | 2 | 122 | 177 | – | – |
| CG15880 | 1 | 128 | 163 | – | – |
| hale | 1 | 103 | 103 | – | – |
| shn | 1 | 103 | 93.7 | – | – |
| shn | 2 | 145 | 127 | – | – |
| Polr2F | 1 | 70.5 (active) | 86.2 | – | – |
| E(spl)m6-BFM | 1 | 208 | 140 | – | – |
| cora | 1 | 118 | 110 | – | – |
| E(bx) | 1 | 113 | 145 | – | – |
| E(bx) | 2 | 83.5 | 83.4 | – | – |
| E(bx) | 3 | 75.5 (active) | 80.1 | – | – |
| CG6163 | 1 | 83.1 | 106 | – | – |
| wmd | 1 | 62.9 (active) | 153 | – | – |
| CG34377 | 1 | 220 | 119 | – | – |
| CG34377 | 2 | 218 | 118 | – | – |
| CG34377 | 3 | 237 | 157 | – | – |
| CG34377 | 4 | 201 | 142 | – | – |
| CG5181 | 1 | 151 | 216 | – | – |
| Xpc | 1 | 114 | 112 | – | – |
| CG15773 | 1 | 213 | 120 | – | – |
| CG17734 | 1 | 127 | 140 | 7625 | 146 |
| Pcf11 | 1 | 125 | 83.2 | – | – |
| Or33c | 1 | 84.2 | 106 | – | – |
| hpo | 1 | 143 | 113 | – | – |
| frtz | 1 | 144 | 106 | – | – |
| cl | 1 | 97.6 | 268 | – | – |
| CG12071 | 1 | 143 | 141 | – | – |
| CG12071 | 2 | 86.5 | 72.6 | – | – |
| Cpr49Ab | 1 | 95.9 | 126 | – | – |
| CG5262 | 1 | 108 | 116 | – | – |
| pira | 1 | 73.8 | 91.4 | – | – |
| CG13868 | 1 | 212 | 106 | – | – |
| Ir75c | 1 | 127 | 196 | – | – |
| Cyp6a18 | 1 | 186 | 139 | – | – |
| Adk1 | 1 | 105 | 74.6 | – | – |
| CG13060 | 1 | 87.9 | 115 | – | – |
| CG9733 | 1 | 139 | 120 | – | – |
| mub | 1 | 108 | 103 | – | – |
| CG5676 | 1 | 111 | 128 | – | – |
| Or69a | 1 | 67.1 | 87.7 | – | – |
| ng3 | 1 | 117 | 123 | – | – |
| GMF | 1 | 85.1 | 149 | – | – |
| Tret1-2 | 1 | 113 | 211 | – | – |
| CG12219 | 1 | 138 | 110 | – | – |
| S-Lap3 | 1 | 77.5 | 78.7 | – | – |
| CG15256 | 1 | 137 | 121 | – | – |
| CG15256 | 2 | 167 | 156 | – | – |
| Or98b | 1 | 108 (active) | 160 | – | – |
| Or98b | 2 | 137 | 123 | – | – |

Records listed so far whose gene name starts with M or m:
| gene | reagent | calcium signal, replicate 1 | calcium signal, replicate 2 | retest calcium signal, replicate 1 | retest calcium signal, replicate 2 |
| --- | --- | --- | --- | --- | --- |
| mEFTu1 | 1 | 157 | 140 | – | – |
| mub | 1 | 108 | 103 | – | – |
